Measured values: PMC11289102
These are yes or no findings as the source states them, for the method shown. Binding seen in cells or lysates may run through a third protein. These calls come from enrichment with a bait or labelling near it, and not all partners need be listed.

Target: T1, multimerin 1 (MMRN1), bait of the IP-MS (UniProt Q13201)
T1 sequence: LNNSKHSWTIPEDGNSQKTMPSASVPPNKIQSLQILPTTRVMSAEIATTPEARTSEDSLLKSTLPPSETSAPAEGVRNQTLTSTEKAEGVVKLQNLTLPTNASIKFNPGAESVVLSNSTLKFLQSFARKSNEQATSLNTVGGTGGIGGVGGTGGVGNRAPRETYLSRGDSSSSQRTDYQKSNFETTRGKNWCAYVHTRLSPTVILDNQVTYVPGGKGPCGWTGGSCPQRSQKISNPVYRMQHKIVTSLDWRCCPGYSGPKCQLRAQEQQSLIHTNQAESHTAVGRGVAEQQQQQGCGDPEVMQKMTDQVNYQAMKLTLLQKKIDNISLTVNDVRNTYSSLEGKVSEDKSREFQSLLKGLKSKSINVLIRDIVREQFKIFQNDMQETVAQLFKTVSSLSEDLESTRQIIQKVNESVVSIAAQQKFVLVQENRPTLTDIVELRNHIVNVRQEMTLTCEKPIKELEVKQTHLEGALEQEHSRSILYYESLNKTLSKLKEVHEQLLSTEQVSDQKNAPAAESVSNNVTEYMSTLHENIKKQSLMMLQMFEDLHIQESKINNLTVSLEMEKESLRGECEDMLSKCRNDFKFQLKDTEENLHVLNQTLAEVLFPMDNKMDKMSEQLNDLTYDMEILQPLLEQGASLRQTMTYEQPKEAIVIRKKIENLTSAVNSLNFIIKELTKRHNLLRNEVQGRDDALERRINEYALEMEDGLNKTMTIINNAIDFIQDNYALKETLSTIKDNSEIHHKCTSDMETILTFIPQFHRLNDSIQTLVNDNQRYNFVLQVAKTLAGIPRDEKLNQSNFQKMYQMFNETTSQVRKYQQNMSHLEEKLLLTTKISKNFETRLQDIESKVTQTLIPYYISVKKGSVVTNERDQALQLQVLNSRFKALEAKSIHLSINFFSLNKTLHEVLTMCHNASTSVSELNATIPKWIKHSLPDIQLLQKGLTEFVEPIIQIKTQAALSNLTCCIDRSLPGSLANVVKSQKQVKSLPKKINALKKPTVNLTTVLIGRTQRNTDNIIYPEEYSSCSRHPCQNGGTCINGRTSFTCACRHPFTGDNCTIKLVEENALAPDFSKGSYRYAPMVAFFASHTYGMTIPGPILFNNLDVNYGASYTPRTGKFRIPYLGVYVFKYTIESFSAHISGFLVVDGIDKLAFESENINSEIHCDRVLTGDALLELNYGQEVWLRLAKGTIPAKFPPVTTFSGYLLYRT
Assay: affinity purification with mass spectrometry; membrane protein extract of HEK293T; antibody with lysate supernatant 12 h at 4 °C; protein A/G magnetic beads; SDS-PAGE, LC-MS (Q Exactive)

B1: hyaluronan mediated motility receptor (HMMR), found by IP-MS (protein, UniProt O75330 1-724)
chain: MSFPKAPLKRFNDPSGCAPSPGAYDVKTLEVLKGPVSFQKSQRFKQQKESKQNLNVDKDTTLPASARKVKSSESKESQKNDKDLKILEKEIRVLLQERGAQDRRIQDLETELEKMEARLNAALREKTSLSANNATLEKQLIELTRTNELLKSKFSENGNQKNLRILSLELMKLRNKRETKMRGMMAKQEGMEMKLQVTQRSLEESQGKIAQLEGKLVSIEKEKIDEKSETEKLLEYIEEISCASDQVEKYKLDIAQLEENLKEKNDEILSLKQSLEENIVILSKQVEDLNVKCQLLEKEKEDHVNRNREHNENLNAEMQNLKQKFILEQQEREKLQQKELQIDSLLQQEKELSSSLHQKLCSFQEEMVKEKNLFEEELKQTLDELDKLQQKEEQAERLVKQLEEEAKSRAEELKLLEEKLKGKEAELEKSSAAHTQATLLLQEKYDSMVQSLEDVTAQFESYKALTASEIEDLKLENSSLQEKAAKAGKNAEDVQHQILATESSNQEYVRMLLDLQTKSALKETEIKEITVSFLQKITDLQNQLKQQEEDFRKQLEDEEGRKAEKENTTAELTEEINKWRLLYEELYNKTKPFQLQLDAFEVEKQALLNEHGAAQEQLNKIRDSYAKLLGHQNLKQKIKHVVKLKDENSQLKSEVSKLRCQLAKKKQSETKLQEELNKVLGIKHFDPSKAFHHESKENFALKTPLKEGNTNCYRAPMECQESWK
  binding: binds
